Test results taken from patent US20150374676A1, “HELICASE-PRIMASE INHIBITORS FOR USE IN A METHOD OF TREATING ALZHEIMER'S DISEASE” (AICURIS GMBH & CO. KG, priority 2013, published 2015).
At least one read-out could not be matched to a standard name with certainty.

Columns and labels:
[1] = Multiple-dose escalation, steady state pharmacokinetics in healthy volunteers; type: in vivo, human
From the text: For three doses of the mono mesylate monohydrate salt of N-[5-(aminosulfonyl)-4-methyl-1,3-thiazol-2-yl]-N-methyl-2-[4-(2-pyridinyl)phenyl]acetamide in formulations in accordance with table a, wherein the particle size distribution is preferably defined by d(0.1) from 2 to 100 μm, d(0.5) from 30 to 210 μm and d(0.9) from 70 to 400 μm with a specific surface area of the particles less than 1.0 m^2/g, and more preferably defined by d(0.1) from 10 to 75 μm, d(0.5) from 100 to 175 μm, d(0.9) from 200 to 350 μm with a specific surface area of the particles less than 0.3 m^2/g, investigated (5, 25, and 100 mg as free base equivalent; once per day oral administration, […]), the individual concentration-time curves of the free base N-[5-(aminosulfonyl)-4-methyl-1,3-thiazol-2-yl]Nmethyl-2-[4-(2-pyridinyl)phenyl]acetamide at day 1 (after the first administration) were very similar in their general shape and slope to those profiles obtained in the single dose escalation trial (see Example a).
At steady state, there was a low inter-individual variability of minimal or “trough” concentrations with CVs (coefficient of variations) between 16.7 and 21.7% (day 21). […]

[2] = Single-dose escalation pharmacokinetics in volunteers; type: in vivo, human; conditions: 40 mg as free base equivalent once daily at steady state (FIG. 4); healthy male volunteers
From the text: Exposure of the free base form of N-[5-(aminosulfonyl)-4-methyl-1,3-thiazol-2-yl]-N-methyl-2-[4-(2-pyridinyl)-phenyl]acetamide to the human body may be measured by high pressure liquid chromatography (HPLC) by looking at different pharmacokinetic parameters in suitable bodily fluids such as for instance blood plasma and urine, the most common parameters being the Cmax, the so-called area under the curve (AUC), and the terminal half-life (t1/2Z). Hereto, the person skilled in the art understands that said parameters are determined by using adequate bioanalytical methods with adequate sensitivity, specificity, ruggedness, stability and repeatability, as for instance a qualified liquid chromatography triple quad mass spectrometry based method coupled with a suitable extraction method for the separation of the analyte from, e.g. the blood plasma. […]
AUC0-∞: Area under the analyte vs. time concentration from time of administration up to infinity, calculated as
wherein AUC0-last is defined as the area under the analyte vs. time concentration up to time of the last qualifiable concentration, calculated by linear up/log down summation and Clast is defined as last quantifiable observed analyte concentration. λz is the apparent terminal elimination rate constant, determined by linear regression of terminal points of In-linear analyte concentration-time curve. […]

CS(=O)(=O)O.Cc1nc(N(C)C(=O)Cc2ccc(-c3ccccn3)cc2)sc1S(N)(=O)=O [mono mesylate monohydrate salt, N-[5-(aminosulfonyl)-4-methyl-1,3-thiazol-2-yl]-N-methyl-2-[4-(2-pyridinyl)-phenyl]acetamide mono methanesulfonic acid monohydrate]
plasma concentrations relative to cell culture EC90 corrected for protein binding ([1]; 25 mg as free base equivalent once daily at steady state, day 21 (FIG. 5), fasted male healthy volunteers n=12): remained over the EC90 for the entire treatment interval | time to reach Cmax,ss ([1]; three doses (5, 25, 100 mg once daily), steady state): 0.5 to 4.5 h | plasma concentrations relative to cell culture EC90 corrected for protein binding [2]: remained over the EC90 for the entire treatment interval
